Experiments:
[1] = Photosensitizer activity: oxygen consumption with histidine as substrate (Clark electrode); format: physicochemical; conditions: histidine 2 mM in PBS pH 7.4; halogen lamp illumination
[2] = Photochemical singlet oxygen generation (emission at 1270 nm after laser excitation in toluene); format: physicochemical; conditions: air saturated toluene; excitation 532 nm; tetraphenylporphyrin as standard
Method: Compound B dissolved in toluene was excited with a 9 mJ, 15 ns laser pulse at 532 nm from a home-built Q-switched frequency doubled Nd:YAG laser operating at 10 Hz. Emission from singlet oxygen at 1270 nm was detected at 90° to the quartz cuvette by an InGaAs photodiode, amplified and then signal-averaged (256 shots) on a digital oscilloscope (HP infinium). A 1260 nm interference filter (FWHM=75 nm) was used to protect the detector from laser light and sensitizer fluorescence. Typical decay times were 28±1 μs, which is characteristic for singlet oxygen decay in toluene (M. Okamoto et al, J. Phys. Chem., 1993, 97, pp. 177-180.) Tetraphenylporphyrin was used as a standard to determine the relative singlet oxygen yield (ΦΔ) (F. Wilkinson, et al, J. Phys. Chem. Ref. Data., 1993, 22, pp. 113-2162.). The relative quantum yield for compound 5 in air saturated toluene was 0.72. […] This stability of the compound according to the invention as exemplified by compound 5 towards singlet oxygen is surprising. In many porphyrins with appending double bonds the double bond reacts chemically with the singlet oxygen generated by the system. […]

2′-aminocarbonyl-8′-formyl-N′-methyl-1′,1a′,5a′,6′-tetrahydroacrido[4,5,5a,6-bcd]-annulated 2,3-dihydromesoporphyrin dimethylester [compound 6]
decrease in dissolved oxygen (oxygen consumption rate) [1]: 34 % per minute

2′-cyano-8′-formyl-N-methyl-1,1a,5a,6-tetrahydroacrido-[4,5,5a,6-bcd]-annulated 2,3-dihydromesoporphyrin dimethylester [compound 5]
relative singlet oxygen quantum yield (ΦΔ) [2]: 0.72

2′-cyano-8′-formyl-N-methyl-1,1a,5a,6-tetrahydroacrido-[4,5,5a,6-bcd]-annulated 2,3-dihydromesoporphyrin dimethylester nickel complex [compound 4]
relative singlet oxygen quantum yield (ΦΔ) [2]: < 0.01

2′-cyano-8′-formyl-N′-methyl-1′,1a′,5a′,6′-tetrahydroacrido[4,5,5a,6-bcd]-annulated 2,3-dihydromesoporphyrin dicarboxylic acid [compound 7]
decrease in dissolved oxygen (oxygen consumption rate) [1]: 20 % per minute

2′-cyano-8′-formyl-N′-methyl-1′,1a′,5a′,6′-tetrahydroacrido[4,5,5a,6-bcd]-annulated octaethyl porphyrin [compound 11]
decrease in dissolved oxygen (oxygen consumption rate) [1]: 50 % per minute
